Laboratory results reported in patent US5908787A, “Total protein detection method” (Bayer Corporation, priority 1997, dated 1999).

Test system: human serum albumin (HSA)
Assay: Pyrogallol red/molybdate test strip with secondary dye: visual resolution between protein levels
Conditions: strip mix pH 1.5, visual rating 0-3; for Reagent Response to Protein Expressed as Visual Resolution Between Levels (mg/dL) 0-15: HSA 0-15 mg/dL in urine; for Reagent Response to Protein Expressed as Visual Resolution Between Levels (mg/dL) 15-50: HSA 15-50 mg/dL in urine; for Reagent Response to Protein Expressed as Visual Resolution Between Levels (mg/dL) 50-150: HSA 50-150 mg/dL in urine; for Reagent Response to Protein Expressed as Visual Resolution Between Levels (mg/dL) 150-450: HSA 150-450 mg/dL in urine

O=S1(=O)OC(c2cc(Br)c(O)c(Br)c2)(c2cc(Br)c(O)c(Br)c2)c2ccccc21 [Secondary dye 1, Bromophenol blue]
Reagent Response to Protein Expressed as Visual Resolution Between Levels (mg/dL) 0-15: 2
Reagent Response to Protein Expressed as Visual Resolution Between Levels (mg/dL) 15-50: 2
Reagent Response to Protein Expressed as Visual Resolution Between Levels (mg/dL) 50-150: 1
Reagent Response to Protein Expressed as Visual Resolution Between Levels (mg/dL) 150-450: 0

O=S1(=O)OC(c2cc(Br)c(O)c(Br)c2)(c2cc(Br)c(O)c(Br)c2)c2c(Br)c(Br)c(Br)c(Br)c21 [Secondary dye 2, Tetrabromophenol blue]
Reagent Response to Protein Expressed as Visual Resolution Between Levels (mg/dL) 0-15: 2
Reagent Response to Protein Expressed as Visual Resolution Between Levels (mg/dL) 15-50: 2
Reagent Response to Protein Expressed as Visual Resolution Between Levels (mg/dL) 50-150: 1
Reagent Response to Protein Expressed as Visual Resolution Between Levels (mg/dL) 150-450: 0

O=S1(=O)OC(c2cc(Cl)c(O)c(Br)c2)(c2cc(Cl)c(O)c(Br)c2)c2ccccc21 [Secondary dye 3, Bromochlorophenol blue]
Reagent Response to Protein Expressed as Visual Resolution Between Levels (mg/dL) 0-15: 2
Reagent Response to Protein Expressed as Visual Resolution Between Levels (mg/dL) 15-50: 2
Reagent Response to Protein Expressed as Visual Resolution Between Levels (mg/dL) 50-150: 1
Reagent Response to Protein Expressed as Visual Resolution Between Levels (mg/dL) 150-450: 0

O=S1(=O)OC(c2cc(I)c(O)c(I)c2)(c2cc(I)c(O)c(I)c2)c2ccccc21 [Secondary dye 4, Tetraiodophenolsulfonephthalein]
Reagent Response to Protein Expressed as Visual Resolution Between Levels (mg/dL) 0-15: 2
Reagent Response to Protein Expressed as Visual Resolution Between Levels (mg/dL) 15-50: 2
Reagent Response to Protein Expressed as Visual Resolution Between Levels (mg/dL) 50-150: 1
Reagent Response to Protein Expressed as Visual Resolution Between Levels (mg/dL) 150-450: 0

O=[N+]([O-])c1cc(C2(c3cc(I)c(O)c([N+](=O)[O-])c3)OS(=O)(=O)c3c(Br)c(Br)c(Br)c(Br)c32)cc(I)c1O [Secondary dye 5, 5',5"-Dinitro-3',3"-Diiodo-3,4,5,6-Tetrabromophenolsulfonephthalein]
Reagent Response to Protein Expressed as Visual Resolution Between Levels (mg/dL) 0-15: 3
Reagent Response to Protein Expressed as Visual Resolution Between Levels (mg/dL) 15-50: 2
Reagent Response to Protein Expressed as Visual Resolution Between Levels (mg/dL) 50-150: 1
Reagent Response to Protein Expressed as Visual Resolution Between Levels (mg/dL) 150-450: 0

O=[N+]([O-])c1cc(C2(c3cc(Br)c(O)c([N+](=O)[O-])c3)OS(=O)(=O)c3c(Br)c(Br)c(Br)c(Br)c32)cc(Br)c1O [Secondary dye 6, 5',5"-Dinitro-3',3",3,4,5,6-hexabromophenolsulfonephthalein]
Reagent Response to Protein Expressed as Visual Resolution Between Levels (mg/dL) 0-15: 3
Reagent Response to Protein Expressed as Visual Resolution Between Levels (mg/dL) 15-50: 3
Reagent Response to Protein Expressed as Visual Resolution Between Levels (mg/dL) 50-150: 2
Reagent Response to Protein Expressed as Visual Resolution Between Levels (mg/dL) 150-450: 0

O=[N+]([O-])c1cc(C2(c3cc(Br)c(O)c(I)c3)OS(=O)(=O)c3c(Br)c(Br)c(Br)c(Br)c32)cc(Br)c1O (stereo not shown) [Secondary dye 7, 5'-Nitro-5''-Iodo-3',3"3,4,5,6-hexabromophenolsulfonephthalein]
Reagent Response to Protein Expressed as Visual Resolution Between Levels (mg/dL) 0-15: 3
Reagent Response to Protein Expressed as Visual Resolution Between Levels (mg/dL) 15-50: 2
Reagent Response to Protein Expressed as Visual Resolution Between Levels (mg/dL) 50-150: 3
Reagent Response to Protein Expressed as Visual Resolution Between Levels (mg/dL) 150-450: 2
